Measured values from publication PMC3083391.
No constants are given. Whether binding was seen depends on the method and setting. In cells and extracts the contact can be indirect. Some results given as binding are weak or reduced against the parent protein; the word gives no strength. Sequences can lack the tags named with a protein. Each block holds one molecule with its values, some of them ahead of it.

Sequences of proteins named here, by UniProt entry; tags and fusion partners are left off.
UniProt Q04206: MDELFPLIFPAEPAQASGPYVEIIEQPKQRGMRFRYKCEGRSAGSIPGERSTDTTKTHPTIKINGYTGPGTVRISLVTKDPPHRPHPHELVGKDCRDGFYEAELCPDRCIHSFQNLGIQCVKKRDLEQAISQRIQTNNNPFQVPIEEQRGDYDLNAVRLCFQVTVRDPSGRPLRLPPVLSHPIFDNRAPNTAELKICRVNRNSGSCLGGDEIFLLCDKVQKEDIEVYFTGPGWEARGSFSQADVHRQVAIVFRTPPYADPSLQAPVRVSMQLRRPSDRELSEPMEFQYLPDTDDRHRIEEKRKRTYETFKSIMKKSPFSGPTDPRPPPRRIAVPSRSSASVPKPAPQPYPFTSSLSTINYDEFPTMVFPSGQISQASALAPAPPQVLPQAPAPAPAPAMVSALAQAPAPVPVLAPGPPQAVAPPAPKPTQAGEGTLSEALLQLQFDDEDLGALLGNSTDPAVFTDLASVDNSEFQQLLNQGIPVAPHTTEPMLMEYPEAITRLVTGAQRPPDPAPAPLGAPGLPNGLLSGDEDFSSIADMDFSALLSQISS
UniProt P25963: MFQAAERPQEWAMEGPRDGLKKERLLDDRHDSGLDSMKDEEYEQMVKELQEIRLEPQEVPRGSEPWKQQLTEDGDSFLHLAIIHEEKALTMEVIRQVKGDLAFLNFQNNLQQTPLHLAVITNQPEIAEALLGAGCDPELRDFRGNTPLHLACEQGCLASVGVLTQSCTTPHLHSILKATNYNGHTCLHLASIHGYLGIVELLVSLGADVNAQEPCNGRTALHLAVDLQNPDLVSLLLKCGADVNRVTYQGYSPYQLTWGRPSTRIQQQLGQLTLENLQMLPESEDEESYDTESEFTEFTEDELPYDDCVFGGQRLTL

Legend:
[1] = target: T1, Myc-AKIP 1A (human) (UniProt Q9NQ31); test: co-IP; Myc-AKIP 1A immunoprecipitated from cytosolic fractions of HeLa cells, unstimulated or with 8-CPT-cAMP (50 µM); Western blot for PKAc, p65 and IκBα
T1 sequence: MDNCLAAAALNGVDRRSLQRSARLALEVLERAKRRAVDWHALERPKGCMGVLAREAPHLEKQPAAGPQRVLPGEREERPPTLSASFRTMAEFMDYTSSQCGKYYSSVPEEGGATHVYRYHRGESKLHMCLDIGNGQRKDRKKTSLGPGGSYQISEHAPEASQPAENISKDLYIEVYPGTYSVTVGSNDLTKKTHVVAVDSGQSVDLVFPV

[2] = target: T1, Myc-AKIP 1A (human); test: co-IP; data not shown: cells stimulated with PMA; interaction of AKIP 1A with PKAc and p65
[3] = target: T1, Myc-AKIP 1A (human); test: co-IP; Myc-AKIP 1A immunoprecipitated from whole cell lysates of transfected HEK 293 cells, serum starved or stimulated with 8-CPT-cAMP (50 µM) or TNFα (1 ng/ml) for 60 min; Western blot for endogenous PKAc and p65
[4] = target: T1, Myc-AKIP 1A (human); test: co-IP; cytosolic fraction of resting HEK 293 cells transfected with Myc-AKIP 1A and Flag-p65 WT; Myc immunoprecipitate blotted for Flag, and Flag immunoprecipitate blotted for Myc
[5] = target: Flag-p65 WT (UniProt Q04206); test: as above

Molecule: Flag-p65 WT (from UniProt Q04206 1-551)
binding [4]: binds

B1: Myc-AKIP 1A (protein, UniProt Q9NQ31 1-210)
chain: T1 sequence
binding [5]: binds

More lines, now with the values ahead:

binding [1]: binds
Molecule: endogenous IκBα (from UniProt P25963 1-317)

binding [2]: binds
binding [1]: binds
binding [3]: binds
Molecule: endogenous p65 subunit of NF-κB (from UniProt Q04206 1-551)
